Results are given in words; binding and its absence hold for the method and conditions named. Binding seen in cells or lysates may run through a third protein. Some binding calls cover weakened binding; strength is not graded here. For some assays here: Where a sequence is shown, tags or fusion partners need not be part of it. Each block holds one molecule with its values, some of them ahead of it.
Key:
[1] = target: T1, FLAG tagged CTCF (UniProt P49711); assay: co-IP; nuclear extract of HeLa-S3 cells overexpressing FLAG tagged CTCF incubated with Flag M2 beads at 4°C overnight; three washes with IP wash buffer (20 mM Tris pH 7.9, 0.1 M KCl, 5 mM MgCl2, 10% glycerol, 0.1% Tween-20); western blot
T1 sequence: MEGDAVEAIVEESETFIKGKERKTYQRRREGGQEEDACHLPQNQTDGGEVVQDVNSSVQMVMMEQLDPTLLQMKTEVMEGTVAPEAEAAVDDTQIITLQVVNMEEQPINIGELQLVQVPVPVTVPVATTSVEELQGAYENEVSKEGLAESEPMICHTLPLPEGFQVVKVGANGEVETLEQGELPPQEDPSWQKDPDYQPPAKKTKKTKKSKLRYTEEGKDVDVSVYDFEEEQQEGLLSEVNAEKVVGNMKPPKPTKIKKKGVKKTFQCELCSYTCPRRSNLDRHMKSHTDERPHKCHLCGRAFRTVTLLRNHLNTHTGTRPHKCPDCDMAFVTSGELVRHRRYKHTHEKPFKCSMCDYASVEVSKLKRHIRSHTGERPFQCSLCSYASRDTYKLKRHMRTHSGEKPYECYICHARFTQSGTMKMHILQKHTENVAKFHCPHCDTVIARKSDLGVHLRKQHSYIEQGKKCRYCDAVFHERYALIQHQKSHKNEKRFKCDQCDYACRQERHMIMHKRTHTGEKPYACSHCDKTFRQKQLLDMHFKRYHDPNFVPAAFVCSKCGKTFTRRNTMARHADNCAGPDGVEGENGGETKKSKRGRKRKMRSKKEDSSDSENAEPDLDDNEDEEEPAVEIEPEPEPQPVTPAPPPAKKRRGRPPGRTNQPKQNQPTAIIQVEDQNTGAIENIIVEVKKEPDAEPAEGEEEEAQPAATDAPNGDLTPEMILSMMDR

Chains of the proteins cited; added tags and fusions are not shown.
UniProt O14503: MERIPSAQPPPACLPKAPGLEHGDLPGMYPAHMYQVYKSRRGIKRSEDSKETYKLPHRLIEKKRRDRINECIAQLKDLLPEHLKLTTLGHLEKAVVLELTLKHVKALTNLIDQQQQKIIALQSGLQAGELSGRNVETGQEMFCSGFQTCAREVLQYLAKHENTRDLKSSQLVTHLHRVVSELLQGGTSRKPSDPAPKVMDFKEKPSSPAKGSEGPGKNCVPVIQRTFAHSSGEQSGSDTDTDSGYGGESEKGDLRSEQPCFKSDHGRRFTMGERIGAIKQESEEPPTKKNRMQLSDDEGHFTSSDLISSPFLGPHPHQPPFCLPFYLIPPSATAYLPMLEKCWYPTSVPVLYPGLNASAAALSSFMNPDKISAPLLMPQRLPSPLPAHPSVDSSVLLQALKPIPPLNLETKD

[2] = target: BIOTIN tagged BHLHE40 (UniProt O14503); assay: co-IP; BIOTIN IP: soluble nuclear extract of HeLa-S3 cells overexpressing BIOTIN tagged BHLHE40 incubated with Dynabeads M-280 Streptavidin at 4°C overnight; three washes with IP wash buffer (20 mM Tris pH 7.9, 0.1 M KCl, 5 mM MgCl2, 10% glycerol, 0.1% Tween-20); western blot

binding [1]: binds
Molecule: BHLHE40 (from UniProt O14503 1-412)

binding [2]: binds
B1: CTCF (protein, UniProt P49711 1-727)
chain: T1 sequence
